Measurements as given in article PMC3068133.
Results are given in words; binding and its absence hold for the method and conditions named. Binding seen in cells or lysates may run through a third protein. Some binding calls cover weakened binding; strength is not graded here.

Legend:
[1] = target: constitutively active Myc-PTK6 YF (human) (UniProt Q13882); experiment: co-IP; HEK293 co-transfected with a constant amount of PTK6 YF and increasing amounts of ALT-PTK6; 500 µg of total cell lysate, 1 µg of mouse anti-Myc-tag; immunoblotting (phosphotyrosine 4G10 + PY20, Myc tag)
[2] = target: GST-ALT-PTK6 fusion protein (human) (UniProt Q13882); experiment: pull-down; GST or GST-ALT-PTK6 fusion protein incubated with PC3 total cell lysates; bound proteins detected by immunoblotting; only the target purified

| Substance | binding [1] | binding [2] |
| --- | --- | --- |
| Myc-epitope tagged ALT-PTK6 (from UniProt Q13882-2 1-134) | no binding |  |
| β-catenin (from UniProt P35222 1-781) |  | binds |
